## Primary screen of a compound library

Measurements from “University of Dundee, Small-Polar-MMV Screening Library” (2021), ChEMBL document CHEMBL3988442.

The filed quantity is “Percent Effect” (%).
The controls that fix the scale are not given in the record; negative values are as filed.
This is an unselected part of the compounds tested.
Two or more numbers in one place are separate tests of the same structure; such repeats can differ widely.

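Viability assay of Plasmodium falciparum sporozoites; the read-out is not stated. The concentration is filed as 10 mM, unlikely as a test dose, so the dose is not known. Higher reads as lower viability (inferred: compounds with an IC50 in retests scored well above the rest). Strong results were mostly tested again. Size under these conditions: about 34,000 compounds, about 280 of them at 50% or above in at least one test.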

compound | percent effect
O=C(O)C(F)(F)F.[H][C@@]12CN(CC3CC3)C[C@]1([H])[C@H](OC)CCN2C(=O)c1ccsc1 | -0.9632%
O=C(C1=CCCC1)N1CCC[C@]2(C[C@@H](OCc3ccncc3)CO2)C1.O=C(O)C(F)(F)F | -4.654%
CCOC(=O)Cn1ccc2cc(NC(=O)N3CCSCC3)ccc21 | 45.37% & 40.83%
NC(=O)C1CN(c2ccc3cc(Br)ccc3n2)CCO1 (centres unmarked) | 80.55% & 85.86%
Cc1cncc(C2CCCN2CC(N)=O)n1 (centres unmarked) | 4.433%
Cc1ncsc1-c1nc(Cc2cccs2)nn1C1CCN(C)CC1 | -7.357% & -8.734%
O=S(=O)(c1ccccc1)N1CCOCC(Cc2cccnc2)C1 (centres unmarked) | 0.2896%
CS(=O)(=O)N1CCN(CC(O)COc2ccc(F)cc2)CC1 (centres unmarked) | -8.786%
CCC[C@@H]1CN(Cc2nnc(-c3cccnc3)o2)C[C@H]1NC(C)=O | -7.182%
O=C(Cn1cc(C2CC2)nn1)N(Cc1ccco1)CC1CCCO1 (centres unmarked) | -0.6519%
O=C(Cc1ccccc1)NCCNCc1cccc(O)c1 | 10.15%
Cc1cnn(C2CN(CC(O)c3ccc4c(c3)OCCO4)C2)c1 (centres unmarked) | -3.863%
CC(O)CN(CC(=O)NC(=O)NCC(F)(F)F)c1ccccc1 (centres unmarked) | 6.474%
O=S(=O)(c1ccccc1)N1CCC2(CCCN2Cc2ccccc2Cl)C1 (centres unmarked) | 7.474%
CCCNC(=O)c1cc(C2CCCN(Cc3ccccn3)C2)no1 (centres unmarked) | 2.586%
Cc1cnn(CC2CCCN2C(=O)c2cc3ccccc3[nH]2)c1 (centres unmarked) | -12.25%
O=C1CCC2(CCCN(C(=O)Cc3ccccc3)C2)N1 (centres unmarked) | 1.198%
Cn1cccc1C(=O)N1Cc2c(CN3CCCCC3)nn(C)c2C1 | -6.807%
Cc1ccc(CN2CC(C(=O)N3CCCC3)C3(CCOCC3)C2)s1.O=C(O)C(F)(F)F (centres unmarked) | 1.84%
O=C(c1ccco1)N1CCC2(CCC(=O)N2Cc2ccncc2)CC1 | 12.87%
O=C(NCC(O)C1CC1)Nc1cnn(Cc2ccccc2)c1 (centres unmarked) | -1.173%
[H][C@]12CC[C@]([H])(CN(C(=O)c3cccnc3)C1)N(Cc1cccc(Cl)c1F)C2 | 2.952%
Cc1noc(C(C)N(C)Cc2ccco2)n1 (centres unmarked) | -9.298%
CC(=O)N1Cc2ccccc2OC2(CCN(C(=O)C3CC3)CC2)C1 | -0.6869%
CC(=O)N1CCC(c2nc3ccc(-c4cccc(F)c4)cn3n2)CC1 | 7.277%
Cc1ccc(-c2noc([C@@H]3Cc4nc[nH]c4CN3)n2)cc1 | 79.76% & 77.83%
Cc1ccc2c(c1)CN(C(=O)C1CCCCC1)C(CN(C)C)CO2.Cl (centres unmarked) | -7.938%
CC(C)OC[C@H]1CCC[C@]12CN(S(=O)(=O)c1cn(C)cn1)CCO2 | 2.654%
[H][C@@]12CN(C(=O)c3cc(C)on3)C[C@@]1([H])N(CC1CC1)C(=O)CO2 | -15.05%
CC(C)n1ccnc1CN1CCCN(C(=O)c2cnc[nH]2)CC1 | 2.898%
COc1ccc(CN2CCCn3cnc(COC(C)C)c3C2)cc1.O=C(O)C(F)(F)F | 12.29%
CCOCC1CC2(CCN(C(=O)c3ccccc3F)CC2)CO1 (centres unmarked) | -7.047%
COc1ccccc1CC1CCCN(CCC#N)C1 (centres unmarked) | -7.63%
CC(=O)NCc1ccc(C(=O)N2CCCC2c2c(C)nn(C)c2C)o1 (centres unmarked) | -0.5796%
CCS(=O)(=O)N1Cc2ncn(C)c2C(COCC2CCOCC2)C1.O=C(O)C(F)(F)F (centres unmarked) | -6.566%
OC1(CN2CCOC(CNc3cccnn3)C2)CCCCC1 (centres unmarked) | -8.762%
O=C(O)C(F)(F)F.O=C(O)C(F)(F)F.O=C1CC2(CCN(Cc3ccncc3)C2)CN1c1ccc2c(c1)OCO2 (centres unmarked) | 7.056%
Cc1cccc(Nc2nccnc2C2CCCN2CC(N)=O)n1 (centres unmarked) | 7.262%
CC(C)(C)c1nc(CN(Cc2ccccc2Cl)C2CCCC2)no1 | 12.63%
[H][C@@]12CN(Cc3ccc(Oc4ccccc4)cc3)C[C@]1(C(=O)O)CNC2=O | -9.112%
Cc1cc(N2CCOC(c3ccncn3)C2)ncn1 (centres unmarked) | 1.087%
Cc1ccc(-c2noc(C3CCN3C(=O)c3cc[nH]n3)n2)s1 (centres unmarked) | -6.737%
COCCN(C)C[C@@H]1CN(c2nc(C)cc(C)n2)C[C@@H]1CO | -9.49%
CC(Cn1ccnc1)NC(=O)N1CCN(Cc2ccsc2)CC1 (centres unmarked) | 12.68%
COCCN1CCN(Cc2c(C)noc2C)Cc2cccnc21.O=C(O)C(F)(F)F.O=C(O)C(F)(F)F | 0.6076%
CN(Cc1ccoc1)c1ccc(-c2nccn2C)nn1 | -6.958% & -8.789%
Cc1cc(N(C)CCC(O)c2ccccc2)n2nccc2n1 (centres unmarked) | -6%
COc1cc(CN2CC[C@@]3(CCCO3)[C@@H](O)C2)ccc1F | -3.673%
O=C(c1cnccn1)N1CCC(Cc2cnc3[nH]ccc3c2)CC1 | -7.589%
Cc1ccc(N2CCC3(CCN(C(=O)c4ccnnc4)CC3)CC2)nn1.O=C(O)C(F)(F)F | -13.74%
COCCC(=O)N1CCOCC(Cc2ccc3c(ccn3C)c2)C1 (centres unmarked) | 9.373%
O=C(O)C(F)(F)F.O=C(O)C(F)(F)F.O=C(O)C(F)(F)F.[H][C@]12CCN(Cc3ccccn3)[C@@]1([H])CC[C@H](COCc1ccccn1)O2 | -11.25%
O=C(Nc1cccnc1)N(Cc1ccccc1)C1CC1 | -5.392%
CNC(=O)C1(c2cnccn2)CCCN1C(=O)Cc1ccsc1 (centres unmarked) | 11.13%
Cc1nc(C)c(C(=O)N2CCCC2c2nnc3n2CCCCC3)s1 (centres unmarked) | -9.696%
[H][C@@]12CS(=O)(=O)C[C@]1([H])N(Cc1ccc(C)c(C)c1)CCN2CC1CC1 | 2.79%
[H][C@]12CCN(C(=O)NC3CCCC3)CC[C@@]1([H])S(=O)(=O)N(CC)C2 | 18.86%
Cc1cc(C)c(CNc2cnc3ccccc3n2)c(=O)[nH]1 | 2.109%
COc1ccc(OCc2cc(C(=O)N3CCN[C@H](C)C3)n[nH]2)c(Cl)c1 | 13.53%
Cc1ccc(CC(=O)N2CCOC(c3ncc(CN(C)C)[nH]3)C2)s1 (centres unmarked) | 8.526%
O=C(O)C(F)(F)F.[H][C@@]12C[C@H](c3nc(C)no3)CN(Cc3ccc4c(c3)OCO4)[C@]1([H])CCO2 | -14.4%
CCCS(=O)(=O)NCc1cccnc1OCC | -13.74%
Cc1cccc(OCC(=O)N2CCN(C3CCOC3=O)CC2)c1C (centres unmarked) | -13.52%
CCOc1c(F)cccc1C(=O)N(c1cccnc1)C(C)C | 14.21%
COc1ccc(NC(=O)CSc2nncn2-n2cccc2)c(OC)c1 | 5.769%
CCOc1ncccc1C(=O)N(C)Cc1ncc(C)c(OC)c1C | -5.087%
Cc1cccc(CN2C(=O)CCC23CCN(c2ncc(F)cn2)CC3)n1.O=C(O)C(F)(F)F | -7.262%
Cc1cc(C(=O)N2CCc3nnc(N)cc3C2)c(C)n1-c1cccnc1 | -13.69% & -18.44% & -9.069%
CC1c2ncc(Cn3cncn3)n2CCN1C(=O)N(C)C (centres unmarked) | 8.769%
Cc1noc(C2CCN(C(=O)CCNc3ncccn3)CC2)n1 | 20.61%
COCCNCc1cc2ccc(C)c(C)c2[nH]c1=O | 21.43%
O=S(=O)(CCCNC1CCc2ncnn2C1)c1ccccc1 (centres unmarked) | 5.199%
CC(C(=O)N1CCCN(c2ccc(C#N)cc2)CC1)n1cccn1 (centres unmarked) | -2.521%
Cc1cc(N2CCCN(C(=O)Cc3ccc(O)c(Cl)c3)CC2)ccn1 | -8.326%
COCC1CC2(CCN(Cc3ccccn3)CC2)CN1C(C)C (centres unmarked) | 2.573%
CC(c1ncc(-c2ccccc2)o1)N1CCN(C(=O)C(C)(C)C)CC1 (centres unmarked) | 0.5372%
c1coc(-c2nc(CNCCn3cccn3)cs2)c1 | -31.49% & 18.02% & -28.49%
Cc1ccc(Oc2c(F)cccc2OC[C@@H](N)CC(C)C)cc1 | 13.87%
COc1ccc(C(=O)Nc2cnn(CC(=O)NC3CCCC3)c2)c(O)c1 | -2.713%
CN1CCN(Cc2cccc(NCc3ncc[nH]3)c2)CC1 | 1.669%
Cc1ncc(-c2ccnc(N3CCC[C@@H]3CO)n2)c(-c2cccnc2)n1 | 11.43%
Cc1ccc(C)c(Sc2nccn(C)c2=O)c1 | 7.692%
CCN(CC)CCNC(=O)CCc1c(C)nn(-c2cccc(Cl)c2)c1C | -17.97%
Cl.OC1(Cn2ccc3ncccc32)CCN(Cc2ccccc2F)CC1 | -7.851%
CC(C)CCN(C(=O)c1nc(S(C)(=O)=O)n2ccccc12)C1CC1 | -20.42%
CN(Cc1ccc(Cl)s1)C1CCCN(c2cccnn2)C1 (centres unmarked) | 5.524%
CS(=O)(=O)N1CCC(Cc2cnc(Br)cn2)CC1 | -2.841%
Cc1nc(N)cc(C2CCN2CCC(N)=O)n1 (centres unmarked) | -3.121%
CCN(CCCNC(=O)c1ccc(C)[nH]c1=O)S(C)(=O)=O | -17.16%

10 of the entries, repeated:

* CC(=O)N1Cc2ccccc2OC2(CCN(C(=O)C3CC3)CC2)C1 | -0.6869%
* Cc1nc(N)cc(C2CCN2CCC(N)=O)n1 (centres unmarked) | -3.121%
* CC(c1ncc(-c2ccccc2)o1)N1CCN(C(=O)C(C)(C)C)CC1 (centres unmarked) | 0.5372%
* O=C(O)C(F)(F)F.[H][C@@]12C[C@H](c3nc(C)no3)CN(Cc3ccc4c(c3)OCO4)[C@]1([H])CCO2 | -14.4%
* Cc1ncsc1-c1nc(Cc2cccs2)nn1C1CCN(C)CC1 | -7.357% & -8.734%
* CCOc1c(F)cccc1C(=O)N(c1cccnc1)C(C)C | 14.21%
* CCC[C@@H]1CN(Cc2nnc(-c3cccnc3)o2)C[C@H]1NC(C)=O | -7.182%
* Cc1ccc(N2CCC3(CCN(C(=O)c4ccnnc4)CC3)CC2)nn1.O=C(O)C(F)(F)F | -13.74%
* COc1ccc(CN2CCCn3cnc(COC(C)C)c3C2)cc1.O=C(O)C(F)(F)F | 12.29%
* CC(C)n1ccnc1CN1CCCN(C(=O)c2cnc[nH]2)CC1 | 2.898%